## Primary screen of a compound library

Chains of the proteins cited; added tags and fusions are not shown. Residues count along the entry.
UniProt Q4DA54, 1-478: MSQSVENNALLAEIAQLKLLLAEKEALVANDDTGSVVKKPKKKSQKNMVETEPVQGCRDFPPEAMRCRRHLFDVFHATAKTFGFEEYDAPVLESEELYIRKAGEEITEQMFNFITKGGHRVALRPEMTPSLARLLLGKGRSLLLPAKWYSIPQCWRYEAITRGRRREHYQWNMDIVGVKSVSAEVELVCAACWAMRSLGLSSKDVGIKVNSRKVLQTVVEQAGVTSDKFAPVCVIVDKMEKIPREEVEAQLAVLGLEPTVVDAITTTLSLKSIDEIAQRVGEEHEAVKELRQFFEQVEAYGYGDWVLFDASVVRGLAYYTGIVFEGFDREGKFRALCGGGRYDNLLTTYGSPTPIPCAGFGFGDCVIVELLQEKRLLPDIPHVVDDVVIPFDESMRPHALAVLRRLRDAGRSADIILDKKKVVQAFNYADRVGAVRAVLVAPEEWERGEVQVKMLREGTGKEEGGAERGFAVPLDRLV
UniProt P9WNZ1, whole entry: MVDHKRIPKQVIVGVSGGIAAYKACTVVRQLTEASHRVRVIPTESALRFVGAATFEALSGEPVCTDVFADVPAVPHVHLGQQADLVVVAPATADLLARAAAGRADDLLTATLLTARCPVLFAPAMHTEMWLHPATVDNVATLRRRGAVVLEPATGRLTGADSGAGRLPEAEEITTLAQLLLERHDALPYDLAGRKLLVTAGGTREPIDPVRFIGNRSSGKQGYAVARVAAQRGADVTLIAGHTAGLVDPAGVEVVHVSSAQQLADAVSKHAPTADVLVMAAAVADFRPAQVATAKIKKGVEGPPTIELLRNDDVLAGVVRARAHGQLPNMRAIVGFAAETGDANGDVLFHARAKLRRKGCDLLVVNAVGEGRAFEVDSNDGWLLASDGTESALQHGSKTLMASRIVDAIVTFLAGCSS
UniProt P9WPC5, whole entry: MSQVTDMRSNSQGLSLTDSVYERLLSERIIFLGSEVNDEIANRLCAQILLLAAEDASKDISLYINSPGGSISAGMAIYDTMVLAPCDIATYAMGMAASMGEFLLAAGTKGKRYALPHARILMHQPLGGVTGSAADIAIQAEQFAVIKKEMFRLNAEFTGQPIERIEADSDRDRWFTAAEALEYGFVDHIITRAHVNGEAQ
UniProt P9WPC3, whole entry partner: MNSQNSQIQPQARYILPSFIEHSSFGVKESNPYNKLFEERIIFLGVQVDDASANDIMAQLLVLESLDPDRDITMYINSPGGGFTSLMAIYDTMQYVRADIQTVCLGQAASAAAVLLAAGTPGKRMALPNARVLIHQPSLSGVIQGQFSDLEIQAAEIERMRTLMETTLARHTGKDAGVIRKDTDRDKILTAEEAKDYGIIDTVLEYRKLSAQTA
UniProt Q8IDJ8, 1-583: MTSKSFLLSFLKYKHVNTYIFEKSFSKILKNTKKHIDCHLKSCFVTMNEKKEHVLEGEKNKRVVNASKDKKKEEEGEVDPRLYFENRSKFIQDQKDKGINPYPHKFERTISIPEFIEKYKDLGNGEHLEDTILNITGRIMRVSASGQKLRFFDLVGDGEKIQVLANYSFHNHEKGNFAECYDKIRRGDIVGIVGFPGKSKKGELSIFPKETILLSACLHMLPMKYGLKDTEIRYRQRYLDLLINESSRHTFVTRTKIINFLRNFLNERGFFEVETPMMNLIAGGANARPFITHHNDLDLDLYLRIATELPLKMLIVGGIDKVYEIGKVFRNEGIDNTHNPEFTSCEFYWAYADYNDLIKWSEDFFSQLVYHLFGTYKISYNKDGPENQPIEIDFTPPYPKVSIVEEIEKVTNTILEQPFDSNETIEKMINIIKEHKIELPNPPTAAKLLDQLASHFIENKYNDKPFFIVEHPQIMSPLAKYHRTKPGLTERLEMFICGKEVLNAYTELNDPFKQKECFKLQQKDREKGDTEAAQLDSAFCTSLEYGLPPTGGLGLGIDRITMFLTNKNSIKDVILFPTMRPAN

Results are given as percent effect. The controls that fix the scale are not given in the record; negative values are as filed. The compounds are a random part of those screened. Two or more numbers in one place are separate tests of the same structure; such repeats can differ widely. A dash means the value is not listed here; it may have been measured.

Leishmania in macrophages: 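Cell assay of Leishmania donovani living inside macrophages; the read-out is not stated. Compounds at 30 µM. Higher reads as stronger inhibition (inferred: compounds with an IC50 in retests scored well above the rest). Size under these conditions: about 69,000 compounds, about 1,000 of them at 50% or above in at least one test.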
TcHisRS: 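Histidine-tRNA ligase, Trypanosoma cruzi CL Brener (UniProt Q4DA54). Enzyme assay of histidyl-tRNA synthetase; the read-out is not stated. Compounds at 30 µM. Direction is inferred from retests: higher values go with stronger inhibition. Size under these conditions: about 69,000 compounds, about 31 of them at 50% or above in at least one test.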
CoaBC: 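Coenzyme A biosynthesis protein CoaBC, Mycobacterium tuberculosis (UniProt P9WNZ1). Enzyme assay of CoaBC with a phosphate dye (Biomol Green) read at 650 nm. Tested at 30 µM. Direction is inferred from only a few compounds that gave an IC50; most scored high, so higher reads as stronger inhibition. Most strong results did not repeat in a second test. About 67,000 compounds were tested under these conditions; 0.06% (about 40) showed 50% or more at least once.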
ClpP1P2: 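ClpP1P2, Mycobacterium tuberculosis (UniProt P9WPC5 and UniProt P9WPC3). Protease assay of ClpP1P2, read by the AMC dye that it sets free. Concentration: 50 µM. Direction is inferred from only a few compounds that gave an IC50; most scored high, so higher reads as stronger inhibition. Most other retested compounds had strongly negative values. Of about 69,000 compounds tested this way, about 10 (0.015%) reached 50% or more in at least one test.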
PfKRS1: 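Enzyme assay of the cytosolic lysyl-tRNA synthetase in 384-well plates, read by luminescence. Target: Lysine-tRNA ligase, Plasmodium falciparum 3D7 (UniProt Q8IDJ8). Concentration: 30 µM. Direction is inferred from only a few compounds that gave an IC50; most scored high, so higher reads as stronger inhibition. Size under these conditions: about 69,000 compounds, about 49 of them at 50% or above in at least one test.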

structure | Leishmania in macrophages | TcHisRS | CoaBC | ClpP1P2 | PfKRS1
COCCN1CCC2(CC1)CC(Nc1ccc(C)nn1)CO2 (centres unmarked) | - | 4.908 | - | -7.344 | 2.045
CNc1snc(C)c1C(=O)NC(C)CC(=O)c1cccs1 (centres unmarked) | -19.84 | 3.96 | 2.67 | -2.381 | -2.42
CCOc1ccccc1OC1CCN(C(=O)c2nc(=O)[nH][nH]2)CC1 | -16.93 | -4.183 | 3.723 | 5.757 | 0.8125
CCOCC1c2c(ncn2C)CCN1C(=O)c1cnc(C)cn1.O=C(O)C(F)(F)F (centres unmarked) | 17.78 | - | - | - | -
COc1cccc(CN2CCCC(Nc3cccc(F)c3)C2)c1O (centres unmarked) | 1.469 | 2.542 | 10.13 | -3.092 | 3.034
CCCN1CCN(C(=O)c2cc[nH]n2)[C@H]2CS(=O)(=O)C[C@H]21 | - | 7.143 | 4.365 | 7.055 | 10.13
O=C(NCC1(O)COCCN(Cc2cccc(O)c2)C1)c1cscn1 (centres unmarked) | 25.06 | -3.077 | 7.601 | -10.08 | 1.613
O=C(C1CC1)N1CCc2c(ncnc2N2CCN3CCCC3C2)C1 (centres unmarked) | -19.02 | 13.1 | 7.002 | -5.921 | -4.755
Cc1ccc(S(=O)(=O)N2CCC(Cn3cc(C(C)(C)N)nn3)CC2)s1 | 14.69 | 4.902 | -0.7317 | -30.85 | 1.565
CCN(Cc1noc(C)n1)C(=O)CCc1scnc1C | 14.31 | 10 | 1.261 | 15.59 | -3.046
CC(C)(C)C(=O)N1CCCN(c2ncnc3nc(N)ccc23)CC1 | -4.064 | 0 | 5.104 | -4.896 | 3.627
COc1ccc(C(=O)N(C2CC2)C2CC(=O)NC2=O)cc1 (centres unmarked) | 7.183 | -0.4926 | 3.481 | -14.63 | 7.93
Cc1ccc2c(c1)c(Sc1ccccc1)c(CC(=O)O)n2C | -24.46 | -16.49 | -12.5 | -0.08511 | 3.578
O=C1CC(c2ccc(F)cc2)Cc2[nH]c(=O)c(C(=O)O)cc21 (centres unmarked) | 21.77 | 5.682 | 6.21 | 9.046 | 1.041
c1cnc(N2C[C@@H]3COC[C@]3(COCC3CCCC3)C2)nc1 | - | 14.29 | -6.042 | -12.8 | -3.373
CC(C)C(C)NC(=O)c1ncn2c1CN(C)S(=O)(=O)c1ccccc1-2 (centres unmarked) | - | 13.07 | 14.05 | 9.511 | 2.214
[H][C@@]12CCCO[C@]1([H])[C@@H](N(C)Cc1cncnc1)CN2Cc1ccco1 | 0.5673 | - | - | - | -
Cc1n[nH]c(C)c1C(N)C(=O)NCCc1csc(C(C)C)n1 (centres unmarked) | 0.3355 | 5.603 | -0.8872 | -4.223 | 5.362
Cc1nc(CN2C[C@@H](NS(=O)(=O)N(C)C)[C@H](C(C)C)C2)cs1 | 9.373 | 5.202 | -1.24 | 0.4168 | 6.279
COc1ccc(NC(=O)CSc2nc(C)cc(C)n2)cn1 | 11.66 | 2.632 | - | 5.766 | 3.504
Cc1ccc(C(F)(F)F)cc1NC(=O)C1CCCN1 (centres unmarked) | -12.6 | 4.95 | 0.8505 | -5.028 | 7.472
COc1nc2c(cc1C(=O)N1CC[C@H](CO)[C@@H](O)C1)CCC2 | 9.937 | 8.671 | 0.2481 | 0.4164 | -0.8747
CC(C)N1CCCC1c1csc(N)n1 (centres unmarked) | 20.65 | 6.818 | -4.192 | -8.752 | 0.283
Cc1ccnc(NC(=O)CCNC(=O)c2ccccc2Cl)c1 | 14.71 | 0.4878 | 2.384 | -3.667 | 4.559
COc1ccc(C2CCCN2C(=O)NCCNc2ncccn2)cc1 (centres unmarked) | 9.2 | 5.785 | -3.625 | -0.9388 | 4.973
Cc1ccc(C(=O)N2CC[C@@H]3[C@H]2CCC(=O)N3CC2CC2)o1 | - | 3.226 | 9.091 | -6.056 | 0.8533
c1cc(CCNc2ccc(CC3CCNC3)cn2)ccn1 (centres unmarked) | 10.72 | 3.101 | 6.258 | -4.652 | -0.2861
Cc1cccc(CN2CCCC3(CCC(=O)N3CCN(C)C)CC2)n1.O=C(O)C(F)(F)F.O=C(O)C(F)(F)F (centres unmarked) | 2.447 | - | - | - | -
CCNC(=O)CNC(=O)Nc1c(F)cc(F)cc1-c1ccccc1 | -23.11 | 1 | -1.211 | -15.84 | 2.441
OC(CNc1ccc(Cl)cn1)CN1CCOCC1 (centres unmarked) | -32.77 | 4.762 | 5.579 | -1.131 | 7.786
c1ccc(N2CC3(CCN(Cc4cccnc4)C3)C2)nc1 | - | 5.825 | 3.732 | -2.404 | 8.117
Cc1ccccc1C1(CNC(=O)NCCc2nnc3n2CCC3)CC1 | 36.3 | 0 | 2.834 | 3.682 | 0.4991
Cc1nc2c(cc1C(=O)Nc1ccccc1Cl)c(=O)n(C)c(=O)n2C | 13.09 | 2.4 | 8.009 | -3.908 | 2.332
COc1ccc(C2CCCN2C(=O)NCCn2ccnc2)cc1 (centres unmarked) | 12.9 | 6.745 | -2.105 | -7.345 | -0.502
Cc1c(CNC(=O)C2CCCN2C(=O)C2CC2)oc2ccccc12 (centres unmarked) | 27.13 | 2.041 | 11.02 | -5.856 | -1.462
[H][C@]12CC[C@]([H])(CN(Cc3cc(-c4ccccc4)no3)C1)N(CC1CCC1)C2 | 29.31 | - | - | - | -
O=C(C1=CCCC1)N1CCC[C@]2(C[C@@H](OCc3ccncc3)CO2)C1 | - | 3.784 | -0.8883 | 5.348 | 0.9018
CC(C)c1nc(C2CCCN2CC(=O)Nc2ccc(Cl)cn2)no1 (centres unmarked) | -22.47 | -1.132 | 7.432 | -4.006 | 1.424
NC(=O)c1c[nH]nc1NCc1ccc2c(c1)OCO2 | 14.77 | 2.591 | -5.208 | -15.21 | -1.68
CN(C)C(=O)CN1CCOCC2(C1)CN(c1ncccn1)CCO2.O=C(O)C(F)(F)F (centres unmarked) | 8.491 | - | - | - | -
CCc1noc(C(C)N2CCC(NC(=O)c3ccc(C)s3)CC2)n1 (centres unmarked) | 40.36 | 1.674 | -5 | -6.013 | 3.524
CC(C)n1nc(Cn2cccn2)c2c1CN(C1CCOC1)C2.O=C(O)C(F)(F)F (centres unmarked) | -22.89 | - | - | - | -
CCc1nnc2n1CCN(C(=O)c1ccc(C)c(S(N)(=O)=O)c1)C2 | 21.97 | 2.232 | 3.316 | -28.77 | 5.044
Cc1nc2n(n1)CC(NCC(=O)Nc1cc(C)on1)CC2 (centres unmarked) | 12.19 | 1.17 | -1.786 | -1.223 | 1.305
CN(C)CCN1CCO[C@H]2CN(C(=O)C3CCOCC3)C[C@H]21 | - | 0 | - | -3.561 | 2.863
CN1CCN(CCCNC(=O)CCc2nc3cc(Br)cnc3[nH]2)CC1 | 6.65 and 25.97 | -3.659 | 5.316 | 4.473 | 3.516
COCCc1noc(CN2CCCC2c2noc(C(C)C)n2)n1 (centres unmarked) | 1.386 | -1.345 | 1.015 | -24.55 | -4.045
Cc1cc(CN(C)C(=O)c2ccc(F)cc2F)no1 | -6.199 | 2.5 | 0.2105 | -5.787 | 0.4604
Cc1cc(C(=O)N2CCCCC2c2nc3cc(F)ccc3[nH]2)no1 (centres unmarked) | -5.864 | 2.232 | 0.2551 | 9.778 | 4.1
O=C(O)C(F)(F)F.O=C(O)C(F)(F)F.O=C(O)C(F)(F)F.[H][C@@]12CCCO[C@]1([H])[C@H](N(C)Cc1ccco1)CN(Cc1cccnc1)C2 | 20.6 | - | - | - | -
COc1cccc(CC(=O)NCC(Cc2ccc(F)cc2)C(N)=O)c1 (centres unmarked) | 31.48 | 6.533 | 0.6017 | -6.437 | 2.175
Cc1nc(C)c(CC(=O)Nc2nnc(C(C)C)s2)c(=O)[nH]1 | 21.48 | 6.471 | 5.627 | -24.78 | -0.7071
Cc1ccc(Cl)cc1N1CCC(CNC(=O)Cn2cccn2)C1 (centres unmarked) | -19.77 | 9.091 | 0.2632 | -19.36 | -0.006693
Cc1nn(C)c(C)c1CC(=O)N1CCCC(n2ccnc2)C1 (centres unmarked) | 20.5 | 3.788 | 1.836 | -3.177 | 0.8378
CC1CCN(C(=O)C(C)n2cc(Br)cn2)CC1 (centres unmarked) | -14.3 | 3.478 | -1.155 | -14.4 | 1.978

For reference, 7 entries once more:

* Cc1nc(C)c(CC(=O)Nc2nnc(C(C)C)s2)c(=O)[nH]1 : Leishmania in macrophages: 21.48%; TcHisRS: 6.471%; CoaBC: 5.627%; ClpP1P2: -24.78%; PfKRS1: -0.7071%
* CC(C)(C)C(=O)N1CCCN(c2ncnc3nc(N)ccc23)CC1 : Leishmania in macrophages: -4.064%; TcHisRS: 0%; CoaBC: 5.104%; ClpP1P2: -4.896%; PfKRS1: 3.627%
* Cc1n[nH]c(C)c1C(N)C(=O)NCCc1csc(C(C)C)n1 (centres unmarked) : Leishmania in macrophages: 0.3355%; TcHisRS: 5.603%; CoaBC: -0.8872%; ClpP1P2: -4.223%; PfKRS1: 5.362%
* CC(C)C(C)NC(=O)c1ncn2c1CN(C)S(=O)(=O)c1ccccc1-2 (centres unmarked) : TcHisRS: 13.07%; CoaBC: 14.05%; ClpP1P2: 9.511%; PfKRS1: 2.214%
* O=C(O)C(F)(F)F.O=C(O)C(F)(F)F.O=C(O)C(F)(F)F.[H][C@@]12CCCO[C@]1([H])[C@H](N(C)Cc1ccco1)CN(Cc1cccnc1)C2 : Leishmania in macrophages: 20.6%
* c1cnc(N2C[C@@H]3COC[C@]3(COCC3CCCC3)C2)nc1 : TcHisRS: 14.29%; CoaBC: -6.042%; ClpP1P2: -12.8%; PfKRS1: -3.373%
* [H][C@]12CC[C@]([H])(CN(Cc3cc(-c4ccccc4)no3)C1)N(CC1CCC1)C2 : Leishmania in macrophages: 29.31%

From ChEMBL document CHEMBL3988442, “University of Dundee, Small-Polar-MMV Screening Library” (2021).